# Source: the supplement of paper PMC8728848
# The list shows a part of the results.
# B1: Thrombomodulin Extracellular (Mus musculus), P15306 (protein)
# chain: MLGIFFLGVLAPASLGLSALAKLQPTGSQCVEHECFALFQGPATFLDASQACQRLQGHLMTVRSSVAADVISLLLSQSSMDLGPWIGLQLPQGCDDPVHLGPLRGFQWVTGDNHTSYSRWARPNDQTAPLCGPLCVTVSTATEAAPGEPAWEEKPCETETQGFLCEFYFTASCRPLTVNTRDPEAAHISSTYNTPFGVSGADFQTLPVGSSAAVEPLGLELVCRAPPGTSEGHWAWEATGAWNCSVENGGCEYLCNRSTNEPRCLCPRDMDLQADGRSCARPVVQSCNELCEHFCVSNAEVPGSYSCMCETGYQLAADGHRCEDVDDCKQGPNPCPQLCVNTKGGFECFCYDGYELVDGECVELLDPCFGSNCEFQCQPVSPTDYRCICAPGFAPKPDEPHKCEMFCNETSCPADCDPNSPTVCECPEGFILDEGSVCTDIDECSQGECFTSECRNFPGSYECICGPDTALAGQISKDCDPIPVREDTKEEEGSGEPPVSPTPGSPTGPPSARPVHSGVLIGISIASLSLVVALLALLCHLRKKQGAARAELEYKCASSAKEVVLQHVRTDRTLQKF
# Key:
# Experiment in all cases: glycan array binding signal (z-score within array); higher = stronger binding
# Details in all cases: glycan notation: IUPAC condensed, linker removed
# [1] = target: Gal(b1-3)GlcNAc(b1-2)Man(a1-3)[Gal(b1-3)GlcNAc(b1-2)Man(a1-6)]Man(b1-4)GlcNAc(b1-4)[Fuc(a1-6)]GlcNAc
# Procedure, shortened: (§1)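 The Consortium for Functional Glycomics database supplied 3228 glycan arrays, of which those lacking an available protein sequence were dropped. The binding signal, a within-array Z-score, was averaged across arrays of the same protein sequence and across linkers. Negative scores can be read as non-binding.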
# [2] = target: Gal(b1-3)GlcNAc(b1-2)Man(a1-3)[GlcNAc(b1-4)][Gal(b1-3)GlcNAc(b1-2)Man(a1-6)]Man(b1-4)GlcNAc(b1-4)GlcNAc
# Procedure, shortened: as §1
# [3] = target: Gal(b1-3)GlcNAc(b1-2)[Gal(b1-3)GlcNAc(b1-6)]Man(a1-6)[Gal(b1-3)GlcNAc(b1-2)Man(a1-3)]Man(b1-4)GlcNAc(b1-4)GlcNAc
# Procedure, shortened: as §1
# [4] = target: Gal(b1-3)GlcNAc(b1-3)Gal(b1-3)GlcNAc
# Procedure, shortened: as §1
# [5] = target: Gal(b1-3)GlcNAc(b1-3)Gal(b1-4)Glc
# Procedure, shortened: as §1
# [6] = target: Gal(b1-3)GlcNAc(b1-3)Gal(b1-4)GlcNAc
# Procedure, shortened: as §1
# [7] = target: Gal(b1-3)GlcNAc(b1-3)Gal(b1-4)GlcNAc(b1-2)Man(a1-3)[Gal(b1-3)GlcNAc(b1-3)Gal(b1-4)GlcNAc(b1-2)Man(a1-6)]Man(b1-4)GlcNAc(b1-4)GlcNAc
# Procedure, shortened: as §1
# [8] = target: Gal(b1-3)GlcNAc(b1-3)Gal(b1-4)GlcNAc(b1-2)[Gal(b1-3)GlcNAc(b1-3)Gal(b1-4)GlcNAc(b1-6)]Man(a1-6)[Gal(b1-3)GlcNAc(b1-3)Gal(b1-4)GlcNAc(b1-2)Man(a1-3)]Man(b1-4)GlcNAc(b1-4)[Fuc(a1-6)]GlcNAc
# Procedure, shortened: as §1
# [9] = target: Gal(b1-3)GlcNAc(b1-3)Gal(b1-4)GlcNAc(b1-3)Gal(b1-4)GlcNAc(b1-2)[Gal(b1-3)GlcNAc(b1-3)Gal(b1-4)GlcNAc(b1-3)Gal(b1-4)GlcNAc(b1-6)]Man(a1-6)[Gal(b1-3)GlcNAc(b1-3)Gal(b1-4)GlcNAc(b1-3)Gal(b1-4)GlcNAc(b1-2)Man(a1-3)]Man(b1-4)GlcNAc(b1-4)[Fuc(a1-6)]GlcNAc
# Procedure, shortened: as §1
# [10] = target: Gal(b1-3)GlcNAc(b1-3)Gal(b1-4)GlcNAc(b1-6)[Gal(b1-3)GlcNAc(b1-3)]Gal(b1-4)Glc
# Procedure, shortened: as §1
# [11] = target: Gal(b1-3)GlcNAc(b1-3)Gal(b1-4)[Fuc(a1-3)]GlcNAc
# Procedure, shortened: as §1
# [12] = target: Gal(b1-3)GlcNAc(b1-3)Gal(b1-4)[Fuc(a1-3)]GlcNAc(b1-6)[Gal(b1-3)GlcNAc(b1-3)]Gal(b1-4)Glc
# Procedure, shortened: as §1
# [13] = target: Gal(b1-3)GlcNAc(b1-3)GalNAc
# Procedure, shortened: as §1
# [14] = target: Gal(b1-3)GlcNAc(b1-6)Gal(b1-4)GlcNAc
# Procedure, shortened: as §1
# [15] = target: Gal(b1-3)GlcNAc(b1-6)GalNAc
# Procedure, shortened: as §1
# [16] = target: Gal(b1-3)GlcNAc(b1-6)[Gal(b1-3)]GalNAc
# Procedure, shortened: as §1
# Gal(b1-3)GlcNAc6S = target: Gal(b1-3)GlcNAc6S
# Procedure, shortened: as §1
# [17] = target: Gal(b1-3)[Fuc(a1-4)]GlcNAc
# Procedure, shortened: as §1
# [18] = target: Gal(b1-3)[Fuc(a1-4)]GlcNAc(b1-2)Man
# Procedure, shortened: as §1
# [19] = target: Gal(b1-3)[Fuc(a1-4)]GlcNAc(b1-2)Man(a1-3)[Gal(b1-3)[Fuc(a1-4)]GlcNAc(b1-2)Man(a1-6)]Man(b1-4)GlcNAc(b1-4)[Fuc(a1-6)]GlcNAc
# Procedure, shortened: as §1
# [20] = target: Gal(b1-3)[Fuc(a1-4)]GlcNAc(b1-3)Gal(b1-3)[Fuc(a1-4)]GlcNAc
# Procedure, shortened: as §1
# [21] = target: Gal(b1-3)[Fuc(a1-4)]GlcNAc(b1-3)Gal(b1-4)[Fuc(a1-3)]GlcNAc
# Procedure, shortened: as §1
# [22] = target: Gal(b1-3)[Fuc(a1-4)]GlcNAc(b1-6)GalNAc
# Procedure, shortened: as §1
# [23] = target: Gal(b1-3)[GlcNAc(b1-6)]GalNAc
# Procedure, shortened: as §1
# [24] = target: Gal(b1-3)[Neu5Ac(a2-6)]GalNAc
# Procedure, shortened: as §1
# [25] = target: Gal(b1-3)[Neu5Ac(a2-6)]GlcNAc(b1-4)Gal(b1-4)Glc
# Procedure, shortened: as §1
# [26] = target: Gal(b1-3)[Neu5Ac(b2-6)]GalNAc
# Procedure, shortened: as §1
# Gal(b1-4)Gal = target: Gal(b1-4)Gal
# Procedure, shortened: as §1
# [27] = target: Gal(b1-4)GalNAc(a1-3)[Fuc(a1-2)]Gal(b1-4)GlcNAc
# Procedure, shortened: as §1
# [28] = target: Gal(b1-4)GalNAc(b1-3)[Fuc(a1-2)]Gal(b1-4)GlcNAc
# Procedure, shortened: as §1
binder,measurement,setting,value
B1,glycan array binding signal (z-score),[1],-0.735
same,glycan array binding signal (z-score),[2],0.655
same,glycan array binding signal (z-score),[3],0.399
same,glycan array binding signal (z-score),[4],-0.59
same,glycan array binding signal (z-score),[5],-0.39
same,glycan array binding signal (z-score),[6],-0.646
same,glycan array binding signal (z-score),[7],-0.991
same,glycan array binding signal (z-score),[8],0.113
same,glycan array binding signal (z-score),[9],0.543
same,glycan array binding signal (z-score),[10],-0.013
same,glycan array binding signal (z-score),[11],-1.08
same,glycan array binding signal (z-score),[12],-0.684
same,glycan array binding signal (z-score),[13],-0.059
same,glycan array binding signal (z-score),[14],0.105
same,glycan array binding signal (z-score),[15],0.022
same,glycan array binding signal (z-score),[16],-1.19
same,glycan array binding signal (z-score),Gal(b1-3)GlcNAc6S,0.533
same,glycan array binding signal (z-score),[17],-0.053
same,glycan array binding signal (z-score),[18],-0.285
same,glycan array binding signal (z-score),[19],2.94
same,glycan array binding signal (z-score),[20],-0.811
same,glycan array binding signal (z-score),[21],-0.158
same,glycan array binding signal (z-score),[22],-0.971
same,glycan array binding signal (z-score),[23],0.373
same,glycan array binding signal (z-score),[24],-0.132
same,glycan array binding signal (z-score),[25],-1.03
same,glycan array binding signal (z-score),[26],-1.11
same,glycan array binding signal (z-score),Gal(b1-4)Gal,-1.25
same,glycan array binding signal (z-score),[27],0.516
same,glycan array binding signal (z-score),[28],-0.664

# Some of the entries so far, bar-delimited:
binder | measurement | setting | value
B1 | glycan array binding signal (z-score) | [1] | -0.735
same | glycan array binding signal (z-score) | [10] | -0.013
